Reference: PubChem BioAssay (EPA / NIEHS)
Where “and” joins values, the source holds several entries; their conditions need not be identical. Equal values may be shown once. Inconclusive results, whose numbers are uncertain, are shown with a selection of clear calls. For part of these data: A potency beside an inconclusive call is a rough fit, not a confirmed value. Where a structure was tested more than once in an assay, its records may differ in their call. Calls of active or inactive are those of the source. How the source made its calls: active means hit-call score of the fitted dose curve at least 0.9, where 1 is the maximum; inconclusive means response in the unintended direction; inactive means score below 0.9.

By UniProt entry, the sequences of proteins in these tests, tags left out.
UniProt P04637, whole entry, looked up: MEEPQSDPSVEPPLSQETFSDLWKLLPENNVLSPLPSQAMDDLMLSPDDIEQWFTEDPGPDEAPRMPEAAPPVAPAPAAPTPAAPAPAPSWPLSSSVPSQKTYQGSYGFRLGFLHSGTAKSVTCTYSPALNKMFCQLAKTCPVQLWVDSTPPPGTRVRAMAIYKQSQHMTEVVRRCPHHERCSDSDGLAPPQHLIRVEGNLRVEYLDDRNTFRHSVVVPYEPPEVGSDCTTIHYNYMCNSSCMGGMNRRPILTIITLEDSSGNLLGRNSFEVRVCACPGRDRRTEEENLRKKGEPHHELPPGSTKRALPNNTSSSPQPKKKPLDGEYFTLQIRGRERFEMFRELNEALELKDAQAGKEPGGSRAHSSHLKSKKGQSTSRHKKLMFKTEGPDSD

Tests used:
[1] = TOX21_TR_RXR_BLA_Agonist_Followup_viability: Viability Assessment in the Tox21 Thyroid Hormone Receptor beta Retinoid X Receptor alpha (RXRa) Agonism Beta-lactamase (BLA) Follow-Up Assay (AID 2283970)
In short: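 RXRa-UAS-bla HEK293T cells seeded at 2,500/well in phenol red-free DMEM with 2% charcoal-stripped FBS, exposed to compound 16h at 37C/5% CO2 in qHTS. Viability read by CellTiter-Glo ATP luminescence; bidirectional fitting against DMSO baseline, signal loss indicating cytotoxicity.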

[2] = CCTE_Shafer_MEA_dev_active_electrodes_number: CCTE's Neural Network Formation Assay for Number of Active Electrodes, Shafer Lab (AID 2284040);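 further: potency for loss of active electrodes versus DMSO so lower counts are hits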
In short: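 Rat cortical primary cultures, 1.5 x 10^5 cells/well, PEI-coated MEA, laminin drop. Continuous exposure DIV 0–12; full media/compound change DIV 5, 9. Readout: electrodes with mean firing ≥5 spikes/min; AUC across days; loss vs DMSO.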

[3] = CCTE_Shafer_MEA_dev_bursting_electrodes_number: CCTE's Neural Network Formation Assay for Number of Bursting Electrodes, Shafer Lab (AID 2284043);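 further: potency is for loss of bursting electrodes relative to DMSO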
In short: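 Primary rat cortical neurons plated on 16-electrode MEA wells, exposed from day 0 with compound renewed at DIV 5 and 9. Electrodes bursting ≥1 burst per 2 min counted on days 5, 7, 9 and 12; trapezoidal AUC across days, fitted for loss versus DMSO.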

[4] = CCTE_Shafer_MEA_dev_LDH: CCTE's Lactate Dehydrogenase Assay for Cytotoxicity in the Neural Network Formation Assay, Shafer Lab (AID 2284068);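 further: exposure for twelve days from plating with re-dosing on DIV 5 and 9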
In short: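 Developing rat cortical networks on MEA plates are exposed to compound for 12 days from plating. LDH activity is measured spectrophotometrically, with DMSO as baseline.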

[5] = CCTE_Shafer_MEA_dev_AB: CCTE's Alamar Blue Assay for Cytotoxicity in the Neural Network Formation Assay, Shafer Lab (AID 2284083);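 further: resazurin reduction fluorescence as viability of cultured neurons; twelve days of exposure from plating with re-dosing on DIV 5 and 9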
In short: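 Cytotoxicity companion to the developmental MEA: primary rat cortical neurons, 12-day exposure starting day 0, compound refreshed DIV 5 and 9; resazurin fluorescence, fitted against DMSO vehicle.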

[6] = CCTE_Mundy_HCI_hNP1_Pro_ResponderAvgInten: CCTE's Proliferation Assay in human neuroprogenitor cells, Mundy Lab (AID 2284224);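 further: human neural progenitor cells hNP1 derived from WA09 embryonic stem cells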
In short: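 Proliferation read as average intensity of BrdU-positive cells, imaged at 26.25 h post-dosing: chemical exposure started after 40–44 h culture, BrdU during final 4 h, paraformaldehyde fixation. Positive-direction fit relative to DMSO.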

[7] = CCTE_Mundy_HCI_Cortical_NOG_NeuronCount: CCTE's Neurite Outgrowth Assay in rat cortical cells for Neuron Count, Mundy Lab (AID 2284236);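 further: neurons counted by imaging betaIII-tubulin and Hoechst stained cortical cells; cells exposed to compound for about 48 hours before fixation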
In short: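 Read-out: neuron number by high-content imaging of betaIII-tubulin (Alexa Fluor-488) and Hoechst-labelled rat primary cortical cells.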

[8] = IUF_NPC4_neurite_area_120hr: Leibniz Research Institute for Environmental Medicine (IUF) 120-hour Neuronal Morphology Assay for Neurite Area (NPC4) (AID 2284305)
In short: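 Human fetal neural progenitor spheres (0.3 mm) plated on poly-D-lysine/laminin in N2 differentiation medium, exposed 120 h (7 concentrations, DMSO ≤0.1%, half-medium refresh day 3). Fixed, TUBB3 immunostained; mean neurite area per neuron by Omnisphero skeletonization.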

[9] = CCTE_Mundy_HCI_hNP1_CellTiter: CCTE's Cell Titer-Glo 2 Assay in human neuroprogenitor cells for Viability, Mundy Lab (AID 2284241);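 further: a hit is a drop in ATP luminescence versus DMSO meaning reduced viability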
In short: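 Viability read as luminescent ATP content (CellTiter-Glo, 30 min room temperature) twenty-four hours after dosing, relative to DMSO. Cells: WA09-derived hNP1 neuroprogenitors on poly-L-ornithine/laminin, plated 40 to 44 hours before chemical.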

[10] = CCTE_Mundy_HCI_Cortical_Synap_Neur_Matur_NeuronCount: CCTE's Synaptogenesis and Neurite Maturation Assay in rat cortical cells for Neuron Count, Mundy Lab (AID 2284242);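 further: neuron number from Hoechst nuclei and MAP2 staining by high-content imaging; hits reduce neuron count versus DMSO baseline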
In short: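 Rat primary cortical cells received AraC at DIV 5 to arrest glia, then were dosed with chemicals at DIV 7 through DIV 12. Fixed cells were stained for nuclei, MAP2 and synaptophysin, and neurons were counted by high-content imaging relative to DMSO.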

[11] = IUF_NPC5_oligodendrocyte_differentiation_120hr: Leibniz Research Institute for Environmental Medicine (IUF) 120-hour Oligodendrocyte Differentiation Assay (NPC5) (AID 2284304);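 further: primary human fetal neural progenitor spheres plated to migrate and differentiate; share of O4-positive cells among Hoechst nuclei found by CNN image analysis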
In short: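 Human fetal neural progenitor spheres (0.3 mm) plated on poly-D-lysine/laminin in N2 differentiation medium and exposed for 120 h at 7 concentrations, with half-medium renewal at day 3. O4-positive cells identified by CNN, expressed as percent of Hoechst nuclei.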

[12] = target: Cellular tumor antigen p53 (Homo sapiens) (UniProt P04637); assay: TOX21_p53_BLA_p2_ratio: Tox21 HCT-116 p53 Agonism Beta-lactamase Assay, Ratio, Phase 2 (AID 2283592)
In short: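 HCT-116 cells with p53-responsive beta-lactamase reporter, 4000 cells/well, preincubated 5 h, then compound in DMSO (217-fold dilution) for 16 h at 37C. CCF4-AM substrate 2 h at room temperature; 460/530 nm emission ratio fitted upward versus DMSO.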

[13] = TOX21_p53_BLA_p3_viability: Viability Assessment in the Tox21 HCT-116 p53 Agonism Beta-lactamase Assay, Phase 3 (AID 2283593);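 further: cells exposed to compound for 16 h before reading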
In short: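 HCT116 cells, 4000/well, dosed 5 h after plating by pin transfer (217-fold dilution from DMSO stock) and incubated 16 h at 37C, 5% CO2. Viability read as ATP luminescence with CellTiter-Glo after 30 min at room temperature.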

[14] = target: Cellular tumor antigen p53 (Homo sapiens) (UniProt P04637); assay: TOX21_p53_BLA_p3_ratio: Tox21 HCT-116 p53 Agonism Beta-lactamase Assay, Ratio, Phase 3 (AID 2283596)
In short: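 HCT116 p53-bla cells (4000/well) given compound in DMSO (217-fold dilution) after 5 h, incubated 16 h at 37C. CCF4-AM substrate 2 h at room temperature; 460/530 nm emission ratio, gain fitted against DMSO.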

[15] = TOX21_p53_BLA_p4_viability: Viability Assessment in the Tox21 HCT-116 p53 Agonism Beta-lactamase Assay, Phase 4 (AID 2283597);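 further: hits lower the luminescence signal meaning cytotoxicity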
In short: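 HCT-116 p53-bla cells, 4000/well, dosed after 5 h attachment and incubated 16 h at 37 °C, 5% CO2. Viability from CellTiter-Glo ATP luminescence after 30 min at room temperature, taken after the beta-lactamase read; loss of signal indicates cytotoxicity.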

[16] = target: Cellular tumor antigen p53 (Homo sapiens) (UniProt P04637); assay: TOX21_p53_BLA_p5_ratio: Tox21 HCT-116 p53 Agonism Beta-lactamase Assay, Ratio, Phase 5 (AID 2283599)
In short: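 HCT-116 p53-bla cells (4000/well) plated 5 h, dosed with compound (217-fold DMSO dilution) for 16 h at 37 C; CCF4-AM substrate 2 h at room temperature. Activity is the 460/530 nm emission ratio (405 nm excitation), fitted in gain-of-signal direction versus DMSO.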

[17] = TOX21_p53_BLA_p5_viability: Viability Assessment in the Tox21 HCT-116 p53 Agonism Beta-lactamase Assay, Phase 5 (AID 2283600)
In short: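 HCT-116 p53 beta-lactamase reporter cells, 4000/well, were exposed to compound (pin transfer, 217-fold dilution) for 16 hours at 37C. Cellular ATP was read by CellTiter-Glo luminescence after 30 min at room temperature.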

[18] = target: Cellular tumor antigen p53 (Homo sapiens) (UniProt P04637); assay: TOX21_p53_BLA_p4_ratio: Tox21 HCT-116 p53 Agonism Beta-lactamase Assay, Ratio, Phase 4 (AID 2283601)
In short: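 HCT-116 p53 beta-lactamase reporter cells (4000/well) preincubated 5 h, then compound (217-fold dilution of DMSO stock) for 16 h at 37C. CCF4-AM substrate added 2 h at room temperature; 460/530 nm emission ratio fitted upward versus DMSO.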

[19] = CCTE_Harrill_HTTr_CellCount_MCF7: CCTE's Cell Proliferation Assessment for the High-Throughput Transcriptomics (HTTr) Platform, Harrill Lab (AID 2284012);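 further: intended direction is loss of nuclei count meaning fewer cells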
In short: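 MCF-7 cells were exposed for 6 h to an eight-point dilution series; Hoechst-labeled nuclei were counted by high content imaging. Curves were fitted bidirectionally against DMSO as negative control and baseline, with signal loss indicating reduced cell count.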

NCC(=O)CCC(=O)O
AC50 [1]: inconclusive: 19.2 µM

C[C@H](CS)C(=O)N1CCC[C@H]1C(=O)O
AC50 [2]: inconclusive: 15 µM
AC50 [3]: inconclusive: 15 µM and inconclusive: 2.98 µM
AC50 [4]: inconclusive: 3 nM
AC50 [5]: inconclusive: 0.0388 µM
AC50 [6]: inconclusive: 50 µM
AC50 [7]: inconclusive: 13.9 nM
AC50 [8]: inconclusive: 2.08 µM

CCCCC(CC)COC(=O)COc1ccc(Cl)cc1C (stereo unspecified)
AC50 [4]: inconclusive: 10 nM
AC50 [5]: inconclusive: 50 µM
AC50 [6]: inconclusive: 9.92 µM
AC50 [9]: inconclusive: 26.3 µM
AC50 [10]: active: 11.9 µM
AC50 [11]: inconclusive: 4.77 µM

CC(=O)N=c1sc(S(N)(=O)=O)nn1C
AC50 [12]: inconclusive: 10.3 µM
AC50 [13]: inconclusive: 10.3 µM
AC50 [14]: inconclusive: 10.3 µM
outcome [15]: inactive

NC(=O)NNc1ccccc1
AC50 [12]: inconclusive: 45.9 µM
AC50 [13]: inconclusive: 45.9 µM
outcome [13]: inactive
AC50 [14]: active: 0.000125 µM
AC50 [15]: inconclusive: 23 µM
AC50 [16]: inconclusive: 45.9 µM and inconclusive: 23 µM
AC50 [17]: inconclusive: 45.9 µM and inconclusive: 23 µM
AC50 [18]: inconclusive: 45.9 µM and active: 0.0608 nM

COc1ccc(Cl)cc1C(=O)NCCc1ccc(S(=O)(=O)NC(=O)NC2CCCCC2)cc1
AC50 [12]: inconclusive: 23 µM
AC50 [13]: inconclusive: 42.4 µM
outcome [13]: inactive
AC50 [18]: inconclusive: 23 µM
AC50 [19]: inconclusive: 50 µM

C=C1CC2C3CCC4=CC(=O)C=C[C@]4(C)[C@@]3(F)[C@@H](O)C[C@]2(C)[C@@]1(O)C(=O)COC(C)=O (stereo partly specified)
AC50 [12]: inconclusive: 43.2 µM

CC(=O)c1ccc(OCC(=O)N2CCCCC2)cc1
AC50 [12]: inconclusive: 23 µM
outcome [13]: inactive
AC50 [14]: inconclusive: 23 µM
AC50 [15]: inconclusive: 4.38 µM

CC1CCC(NC(=O)N(CCCl)N=O)CC1 (stereo unspecified)
outcome [12]: inactive
AC50 [13]: inconclusive: 0.761 µM
outcome [14]: inactive
AC50 [15]: inconclusive: 23 µM

CN1CCN(CCCN2c3ccccc3Sc3ccc(S(=O)(=O)N(C)C)cc32)CC1
outcome [12]: inactive
AC50 [13]: inconclusive: 10.3 µM
AC50 [14]: inconclusive: 10.3 µM

Cc1ccc(C(C)NC(=O)[C@@H](NC(=O)OC(C)C)C(C)C)cc1 (stereo partly specified)
AC50 [12]: inconclusive: 51 µM
AC50 [13]: inconclusive: 45.9 µM
AC50 [14]: inconclusive: 81.6 µM

O=P(O)(O)C(O)(Cn1ccnc1)P(=O)(O)O
outcome [12]: inactive
AC50 [13]: inconclusive: 3.15 µM
AC50 [14]: inconclusive: 23 µM
AC50 [15]: inconclusive: 23 µM
outcome [16]: inactive
